Results are given in words; binding and its absence hold for the method and conditions named. In cells and extracts the contact can be indirect. Some binding calls cover weakened binding; strength is not graded here.
Molecular target: Histone cell cycle regulator A (HIRA) (human (endogenous in K562)) (UniProt P54198)
Experiment: co-IP; endogenous HIRA immunoprecipitated from K562 whole cell lysate in NETN buffer (20 mM Tris-HCl pH 7.5, 100 mM NaCl, 1 mM EDTA, 0.1% Nonidet P-40), protein G agarose beads, eluted in 2x Laemmli dye; Western blot; IgG control

The chains behind the UniProt entries cited, without tags or fusion partners.
UniProt P54198: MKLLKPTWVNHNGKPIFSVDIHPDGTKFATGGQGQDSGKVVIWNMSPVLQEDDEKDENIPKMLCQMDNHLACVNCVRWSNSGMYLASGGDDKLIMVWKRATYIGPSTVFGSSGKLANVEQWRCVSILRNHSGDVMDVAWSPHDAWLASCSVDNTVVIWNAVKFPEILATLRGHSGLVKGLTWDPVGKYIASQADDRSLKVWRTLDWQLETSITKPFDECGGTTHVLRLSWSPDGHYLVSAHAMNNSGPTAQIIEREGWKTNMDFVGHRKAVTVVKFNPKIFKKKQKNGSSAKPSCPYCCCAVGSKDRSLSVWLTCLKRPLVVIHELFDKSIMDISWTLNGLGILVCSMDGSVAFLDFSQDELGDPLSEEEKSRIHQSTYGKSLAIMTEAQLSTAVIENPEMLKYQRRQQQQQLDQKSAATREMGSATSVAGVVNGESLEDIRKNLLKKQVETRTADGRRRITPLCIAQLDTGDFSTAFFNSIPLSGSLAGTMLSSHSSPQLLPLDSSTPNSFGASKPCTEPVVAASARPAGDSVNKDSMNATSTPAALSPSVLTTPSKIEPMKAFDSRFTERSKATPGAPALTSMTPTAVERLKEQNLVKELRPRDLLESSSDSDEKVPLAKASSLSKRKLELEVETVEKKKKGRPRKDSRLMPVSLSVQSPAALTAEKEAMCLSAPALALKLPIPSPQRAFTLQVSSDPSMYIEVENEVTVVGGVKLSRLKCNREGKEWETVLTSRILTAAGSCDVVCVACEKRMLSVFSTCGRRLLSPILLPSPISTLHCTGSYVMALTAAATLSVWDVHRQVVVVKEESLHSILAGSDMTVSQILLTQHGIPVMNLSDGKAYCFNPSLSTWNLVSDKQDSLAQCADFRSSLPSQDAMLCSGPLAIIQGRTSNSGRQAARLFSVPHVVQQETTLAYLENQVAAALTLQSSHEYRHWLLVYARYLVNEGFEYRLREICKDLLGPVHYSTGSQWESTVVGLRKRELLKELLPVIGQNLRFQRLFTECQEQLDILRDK
UniProt Q9NPG3: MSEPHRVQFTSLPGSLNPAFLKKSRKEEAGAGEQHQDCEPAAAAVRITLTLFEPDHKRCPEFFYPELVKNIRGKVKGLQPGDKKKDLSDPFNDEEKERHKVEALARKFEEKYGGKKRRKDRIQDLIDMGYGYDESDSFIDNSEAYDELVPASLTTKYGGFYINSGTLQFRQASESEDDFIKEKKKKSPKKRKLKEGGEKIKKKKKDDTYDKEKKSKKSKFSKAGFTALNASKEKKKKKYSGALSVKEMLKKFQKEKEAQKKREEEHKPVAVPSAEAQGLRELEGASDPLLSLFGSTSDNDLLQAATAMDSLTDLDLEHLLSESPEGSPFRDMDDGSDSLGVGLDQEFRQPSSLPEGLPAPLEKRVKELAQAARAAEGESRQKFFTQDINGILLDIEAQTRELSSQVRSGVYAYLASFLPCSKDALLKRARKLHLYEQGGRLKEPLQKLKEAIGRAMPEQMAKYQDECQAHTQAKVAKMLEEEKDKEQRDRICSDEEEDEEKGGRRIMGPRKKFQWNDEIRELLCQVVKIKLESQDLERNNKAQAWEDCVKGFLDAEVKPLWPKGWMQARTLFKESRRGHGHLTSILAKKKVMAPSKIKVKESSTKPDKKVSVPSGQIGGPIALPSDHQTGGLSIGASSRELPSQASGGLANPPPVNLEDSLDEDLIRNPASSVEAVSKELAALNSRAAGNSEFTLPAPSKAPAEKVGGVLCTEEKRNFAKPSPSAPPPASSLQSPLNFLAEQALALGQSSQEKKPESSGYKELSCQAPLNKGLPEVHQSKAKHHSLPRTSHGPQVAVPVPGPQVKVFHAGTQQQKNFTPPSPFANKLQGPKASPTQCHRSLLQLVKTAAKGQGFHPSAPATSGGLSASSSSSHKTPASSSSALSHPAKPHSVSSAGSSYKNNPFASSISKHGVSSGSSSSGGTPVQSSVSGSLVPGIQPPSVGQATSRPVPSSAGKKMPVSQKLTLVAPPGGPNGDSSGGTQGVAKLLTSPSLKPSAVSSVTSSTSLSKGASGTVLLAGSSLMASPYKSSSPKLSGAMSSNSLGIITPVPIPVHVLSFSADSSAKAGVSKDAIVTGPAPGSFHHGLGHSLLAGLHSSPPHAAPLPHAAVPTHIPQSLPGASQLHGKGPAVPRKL

binding: binds
Substance: UBN1 (from UniProt Q9NPG3 1-1134)
